From PubChem BioAssay AID292 (DTP/NCI, 2004)
The list does not hold the whole screen: it is rich in T/C values a quarter to a half above the control, in often repeated tests (any T/C) and in doses without a T/C. Further doses and runs are listed elsewhere. T/C gives the treated animals as a percentage of the vehicle group. Some doses have a count of surviving animals in place of a T/C: the source files T/C as zero there, which appears to mark a toxic dose or a test without result, not a measured value. Some survivor counts are full or nearly so, which does not show that the dose was tolerated: the source hardly ever lists a survival T/C far under the control, and the zero likely stands for such cases as well. Survivors were counted at the toxicity check, usually on the fifth day, unless a day is given; later deaths do not show. Schedules are NCI's codes, read here as Q, the interval in days (D) or hours (H), X, the number of doses. Some doses were run more than once; the results are listed from low to high. For survival time, this PubChem deposit counts one and a half times the control or more as active, and values a quarter to a half above the control carry no call in these data; other NCI protocols may use other cut-offs. Some T/C values are followed by the survivors on the day toxicity was checked, most often the fifth; where none is given, no animal had died by that day. Additions like (4×) stand for listed records that agree.

System: B6C3F1 mice, ip Sarcoma M5076, median survival T/C
Test: NCI In Vivo Anticancer Drug Screen. Data for tumor model Sarcoma M5076 (intraperitoneal) in B6C3F1 mice
Details: T/C endpoint: median survival time, higher T/C = longer survival
Summary of the method: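 Antitumour effect is judged in tumour-bearing mice by comparing survival after compound dosing against vehicle-only animals, reported as T/C.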

[1] = dose: 200.0 mg/kg/injection, schedule: Q04DX005 (ip), vehicle: saline
[2] = dose: 800.0 mg/kg/injection, schedule: Q04DX004 (ip), vehicle: saline with Tween-80
[3] = dose: 800.0 mg/kg/injection, schedule: Q04DX004 (ip), vehicle: saline
[4] = dose: 800.0 mg/kg/injection, schedule: Q04DX005 (ip), vehicle: saline
[5] = dose: 400.0 mg/kg/injection, schedule: Q04DX004 (ip), vehicle: suspension in saline

## Oc1cc(O)cc(/C=C/c2ccc(O)c(O)c2)c1
dose: 50.0 mg/kg/injection, schedule: Q04DX004 (ip), vehicle: DMSO
  survivor count: 10 of 10 on day 14
dose: 100.0 mg/kg/injection, schedule: Q04DX004 (ip), vehicle: DMSO
  survivor count: 8 of 10 on day 14
dose: 200.0 mg/kg/injection, schedule: Q04DX004 (ip), vehicle: DMSO
  survivor count: 3 of 10 on day 14 and 7 of 10 on day 14
dose: 400.0 mg/kg/injection, schedule: Q04DX004 (ip), vehicle: DMSO
  survivor count: 0 of 10 on day 14
dose: 800.0 mg/kg/injection, schedule: Q04DX004 (ip), vehicle: DMSO
  survivor count: 0 of 10 on day 14

## Nc1nncs1
dose: 100.0 mg/kg/injection, schedule: Q04DX004 (ip), vehicle: saline, evaluated on day 60
  T/C: 120 % of control
dose: 100.0 mg/kg/injection, schedule: Q04DX004 (ip), vehicle: saline, evaluated on day 75
  T/C: 103, 105, 112, 117 [9 of 10 alive], 122 [9 of 10 alive on day 14], 123 % of control
dose: 100.0 mg/kg/injection, schedule: Q04DX005 (ip), vehicle: saline
  T/C: 130 % of control
dose: 200.0 mg/kg/injection, schedule: Q04DX004 (ip), vehicle: saline, evaluated on day 60
  T/C: 138 % of control
dose: 200.0 mg/kg/injection, schedule: Q04DX004 (ip), vehicle: saline, evaluated on day 75
  T/C: 112, 115, 120 [9 of 10 alive on day 14], 125 (2×), 138 % of control
[1]
  T/C: 125 % of control
dose: 400.0 mg/kg/injection, schedule: Q04DX004 (ip), vehicle: saline, evaluated on day 60
  T/C: 141 % of control
dose: 400.0 mg/kg/injection, schedule: Q04DX004 (ip), vehicle: saline, evaluated on day 75
  T/C: 118 (2×), 120, 122, 129 % of control
dose: 400.0 mg/kg/injection, schedule: Q04DX004 (ip), vehicle: saline
  survivor count: 9 of 10 on day 14
dose: 400.0 mg/kg/injection, schedule: Q04DX005 (ip), vehicle: saline with Tween-80
  T/C: 128 % of control
dose: 400.0 mg/kg/injection, schedule: Q04DX005 (ip), vehicle: saline
  T/C: 128 and 134 % of control
[2]
  T/C: 126 % of control
[3]
  T/C: 119, 122, 126, 153, 163 % of control
  survivor count: 10 of 10 and 10 of 10 on day 14
dose: 800.0 mg/kg/injection, schedule: Q04DX005 (ip), vehicle: saline with Tween-80
  T/C: 132 % of control
[4]
  T/C: 129 % of control
  survivor count: 10 of 10

## O=C1CSC(c2cccs2)N1c1nncs1 (stereo not given)
dose: 400.0 mg/kg/injection, schedule: Q04DX004 (ip), vehicle: Klucel (hydroxypropylcellulose) (HPC)
  T/C: 127 % of control
dose: 800.0 mg/kg/injection, schedule: Q04DX004 (ip), vehicle: Klucel (hydroxypropylcellulose) (HPC)
  survivor count: 1 of 10 on day 14

## O=[N+]([O-])O.[Ga]
dose: 12.5 mg/kg/injection, schedule: Q04DX005 (ip), vehicle: saline
  T/C: 127 % of control
[1]
  survivor count: 4 of 8 on day 17

## O=C1CCCCCC2=NC12 (stereo not given)
dose: 200.0 mg/kg/injection, schedule: Q04DX004 (ip), vehicle: Klucel (hydroxypropylcellulose) (HPC)
  survivor count: 0 of 10 on day 14

## Nc1ccccc1Sc1cc(Cl)nnc1Cl
[2]
  survivor count: 9 of 10 on day 14

## O=C1c2cccc(NCCCNCCO)c2C(=O)c2cccc(NCCCNCCO)c21
dose: 100.0 mg/kg/injection, schedule: Q04DX004 (ip), vehicle: acid diluted with saline
  survivor count: 7 of 10

## N=C(N)SCc1cccc2c(=O)cc(-c3ccccc3)oc12
[5]
  T/C: 134 % of control
  survivor count: 4 of 10 on day 14 and 6 of 10 on day 14
dose: 666.67 mg/kg/injection, schedule: Q04DX004 (ip), vehicle: suspension in saline
  survivor count: 0 of 10 on day 14
[3]
  survivor count: 3 of 9 on day 14
dose: 800.0 mg/kg/injection, schedule: Q04DX004 (ip), vehicle: suspension in saline
  survivor count: 5 of 10 on day 14
dose: 1111.11 mg/kg/injection, schedule: Q04DX004 (ip), vehicle: suspension in saline
  survivor count: 0 of 10 on day 14
